Data taken from patent US20260325487A1 (BS BIOTECHNA SPOLKA AKCYJNA, priority 2023, published 2026).
Like-named read-outs stand apart in the source and are kept apart here.

Columns and labels:
LN229 = assay: SRB anti-proliferative assay, LN229, molecular combination and nanoparticles, with combination index (Example III); format: cell-based; conditions: Homo sapiens
Experimental: (§1) Cells were thawed from ampoules stored in liquid nitrogen and cultured in petri dishes in the appropriate culture medium according to Table 16, in a humidified 5% CO2 atmosphere at 37° C. Cells were passaged twice weekly using EDTA-Trypsin solution, pH 8, as a separating agent. Counted cells with a viability of at least 90% as assessed with Trypan-Blue solution were used for anti-proliferation assays.
Twenty-four hours before the addition of the test compounds/combinations, cells were seeded into 384-well plates at 50 μL/well and a density of 10^3 cells/well, in the appropriate culture medium. […] Solutions of the compounds were diluted in the test medium—RPMI-1640 and Opti-MEM in a 1:1 ratio, and the medium was supplemented with 2 mM glutamine and 5% fetal bovine serum FBS.
(§2) After 72 h, colourimetric assessment of cell growth was performed by SRB. […] Unbound dye was removed by washing the plates (4×) in 1% (v/v) acetic acid, and protein-bound dye was extracted with 10 mM unbuffered Tris base and the optical density (A=540 nm) was determined in a BioTek Synergy H4 Hybrid computer microplate reader (BioTek Instruments USA). The entire washing/staining procedure was performed using a BioTek EL406 washing station (BioTek Instruments USA). The raw absorbance results were analysed in Microsoft Excel software using the formula:
(§3) [formula] • Where: • % Zahlnh-inhibition of proliferation • Am—absorbance of wells without cells (medium) • Ak—absorbance of control wells (cells treated with pure culture medium) • Ap—absorbance of wells treated with compounds
(§4) Each compound at the indicated concentrations was tested in triplicate in one experiment. Each experiment was repeated three times. Data analysis was supplemented with synergy assessment using CalcuSyn software. […] A CI value below 0.8 indicates synergism, 0.8-1.2 an additive effect, above 1.2 an antagonism.

NCI-H1975 = assay: SRB anti-proliferative assay, NCI-H1975, with CalcuSyn combination index (Example 1); format: cell-based; conditions: Homo sapiens, NCI-H1975, 72 h, read-out: Zah. (inhibition of proliferation)
Experimental: as §1, with “in” for “in the”, “2,” for “16,”, “8.” for “8, as a separating agent.”, “anti-proliferative” for “anti-proliferation”
Twenty-four hours before the addition of the test compounds/combinations, cells were seeded into 384-well plates at 50 μL/well and a density of 10^3 cells/well, in the appropriate culture medium.
as §2, with “Solutions of the compounds were diluted in the test medium-RPMI-1640 and Opti-MEM in a 1:1 ratio, and the medium was supplemented with 2 mM glutamine and 5% fetal bovine serum FBS. After” for “After”
as §3, §4

SMILES: CN[C@@H]1C[C@H]2O[C@@](C)([C@@H]1OC)n1c3ccccc3c3c4c(c5c6ccccc6n2c5c31)C(=O)NC4 [Staurosporine, staurosporine]
- inhibition at 0.0003163 µM (LN229; LN-229, 72 h, read-out: Zah. (inhibition of proliferation), staurosporine 0.3163 nM, in combinations with 17AAG at ratio 5/1, 72 h): 28.3%
- inhibition at 0.001 µM (LN229; LN-229, 72 h, read-out: Zah. (inhibition of proliferation), staurosporine 1 nM, in combinations with 17AAG at ratio 5/1, 72 h): 31.9%
- inhibition at 0.0032 µM (LN229; LN-229, 72 h, read-out: Zah. (inhibition of proliferation), staurosporine 3.2 nM, in combinations with 17AAG at ratio 5/1, 72 h): 38.3%
- inhibition at 0.01 µM (LN229; LN-229, 72 h, read-out: Zah. (inhibition of proliferation), staurosporine 10 nM, in combinations with 17AAG at ratio 5/1, 72 h): 39.4%
- inhibition at 0.0316 µM (LN229; LN-229, 72 h, read-out: Zah. (inhibition of proliferation), staurosporine 31.6 nM, in combinations with 17AAG at ratio 5/1, 72 h): 44.7%
- inhibition at 0.1 µM (LN229; LN-229, 72 h, read-out: Zah. (inhibition of proliferation), staurosporine 100 nM, in combinations with 17AAG at ratio 5/1, 72 h): 56.2%
- inhibition at 0.3163 µM (LN229; LN-229, 72 h, read-out: Zah. (inhibition of proliferation), staurosporine 316.3 nM, in combinations with 17AAG at ratio 5/1, 72 h): 48.3%
- inhibition at 1 µM (LN229; LN-229, 72 h, read-out: Zah. (inhibition of proliferation), staurosporine 1000 nM, in combinations with 17AAG at ratio 5/1, 72 h): 91.3%
- inhibition at 0.0003163 µM (LN229; LN-229, read-out: Zah. (inhibition of cell proliferation), LN229, compound alone, 0.3163 nM): 28.3%
- inhibition at 0.001 µM (LN229; LN-229, read-out: Zah. (inhibition of cell proliferation), LN229, compound alone, 1 nM): 31.9%
- inhibition at 0.0032 µM (LN229; LN-229, read-out: Zah. (inhibition of cell proliferation), LN229, compound alone, 3.2 nM): 38.3%
- inhibition at 0.01 µM (LN229; LN-229, read-out: Zah. (inhibition of cell proliferation), LN229, compound alone, 10 nM): 39.4%
- inhibition at 0.0316 µM (LN229; LN-229, read-out: Zah. (inhibition of cell proliferation), LN229, compound alone, 31.6 nM): 47.1%
- inhibition at 0.1 µM (LN229; LN-229, read-out: Zah. (inhibition of cell proliferation), LN229, compound alone, 100 nM): 56.2%
- inhibition at 0.3163 µM (LN229; LN-229, read-out: Zah. (inhibition of cell proliferation), LN229, compound alone, 316.3 nM): 55.8%
- inhibition at 1 µM (LN229; LN-229, read-out: Zah. (inhibition of cell proliferation), LN229, compound alone, 1000 nM): 91.3%
- inhibition at 31.1 pM (NCI-H1975): -3%
- inhibition at 98.5 pM (NCI-H1975): 0.8%
- inhibition at 0.0003109 µM (NCI-H1975): 4.6%
- inhibition at 0.001 µM (NCI-H1975): 16.1%
- inhibition at 0.0031 µM (NCI-H1975): 44.2%
- inhibition at 0.01 µM (NCI-H1975): 61.6%
- inhibition at 0.0314 µM (NCI-H1975): 67.6%
- inhibition at 0.1 µM (NCI-H1975): 82.5%
